# Measurements as given in publication PMC7819943, “Rice protein-binding microarrays: a tool to detect cis-acting elements near promoter regions in rice”.
# By UniProt entry, the sequences of proteins in these tests, tags left out.
# UniProt Q0JBA9, entry or part of it: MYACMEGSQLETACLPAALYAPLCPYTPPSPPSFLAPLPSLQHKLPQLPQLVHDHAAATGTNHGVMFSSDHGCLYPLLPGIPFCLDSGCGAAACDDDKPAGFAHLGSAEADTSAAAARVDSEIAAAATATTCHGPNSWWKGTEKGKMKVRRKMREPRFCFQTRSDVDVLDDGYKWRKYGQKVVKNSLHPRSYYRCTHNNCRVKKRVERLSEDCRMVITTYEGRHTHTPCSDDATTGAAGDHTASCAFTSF
# This is one part of the list.
# Biological target: OsWRKY34 (Oryza sativa, UniProt Q0JBA9 1-250)
# Assay: protein-binding microarray (RPBM); PBS, 2% BSA, 51.3 ng/ul salmon testes DNA, 50 uM zinc acetate, 200 nM TF, 25 C, 1 h; high values mean tight binding
# Conditions: protein: recombinant; tags: N-terminal polyhistidine and DsRed monomer fusion (pET32a); label: CyDye5-dUTP incorporated in the synthesized complementary strand; 3' TTTTT single-stranded linker to array surface; dsDNA, one strand shown
# How it was run: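 Polyhistidine-tagged DsRed fusions of transcription factors, joined at the N-terminus, were expressed in E. coli BL21-CodonPlus and isolated on Ni–NTA. They were incubated at 200 nM for 1 h at 25 °C on a custom Agilent array, double-stranded and BSA-blocked, in PBS with 2% BSA, salmon testes DNA and 50 µM zinc acetate. The binding signal is per-feature fluorescence intensity (arbitrary units) read on an Axon 4000B scanner after washing.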
row,Sequence,binding signal
1,ACATCGAGAGACCGAAATTTGGCCCACACCCAGGCTCAGCCGGAGTCACCTAGTGCAG,8710 fluorescence intensity (a.u.)
2,TGGTATGTGTGTTGGTGGTGTGTTCAGATTTGTTGATTTACGGAGTCACCTAGTGCAG,9110 fluorescence intensity (a.u.)
3,AAATTTACCTCCCTAAGTGGTTTTGTCCTATGTTACGTCTCGGAGTCACCTAGTGCAG,9280 fluorescence intensity (a.u.)
4,TCCGTCTAACCAAATACACATAGTAATCCTTTAGTTGTATCGGAGTCACCTAGTGCAG,8410 fluorescence intensity (a.u.)
5,AATCCTGAAGATGCTACTGCTACACCTTTTCTTTTGGCCTCGGAGTCACCTAGTGCAG,10600 fluorescence intensity (a.u.)
6,TTAATCAACTCGATTTCTGTCCAAGTTCGTCTCTATTGACCGGAGTCACCTAGTGCAG,8520 fluorescence intensity (a.u.)
7,TGCACTTACTTGTCTGATTTTGCACTCAGTTGGGGATATCCGGAGTCACCTAGTGCAG,8760 fluorescence intensity (a.u.)
8,TTCGCGCGCTGCTCGCTCGCTTGGTTGGTTGGTTGATTGCCGGAGTCACCTAGTGCAG,15200 fluorescence intensity (a.u.)
9,TCCCGCATGCGCCCGGTCCACCGCGCCTCGCCTCGCTGACCGGAGTCACCTAGTGCAG,8550 fluorescence intensity (a.u.)
10,GTTCTTTTTTAGTTTTGGAAGGGGACCTTTCTTGGGGTATCGGAGTCACCTAGTGCAG,13500 fluorescence intensity (a.u.)
11,TGCCAGGCCAACTCTAGCTTCAAATCCAGGGGAGGAATCACGGAGTCACCTAGTGCAG,8700 fluorescence intensity (a.u.)
12,CGCATCATCCGCCCGTACACGTGTCCTGCATCGACGGCGCCGGAGTCACCTAGTGCAG,11200 fluorescence intensity (a.u.)
13,ACAGTGGTTATTAATGCTATTTATATCTTTTCTTATTAAGCGGAGTCACCTAGTGCAG,9390 fluorescence intensity (a.u.)
14,AACTGCGGCATTGGCGATGTGGTTTCGCTGCTTGGTCATCCGGAGTCACCTAGTGCAG,8460 fluorescence intensity (a.u.)
15,TTTTTTTCCTTTTTTCCTGTTGGTGTTGCGCGGTGGGCGACGGAGTCACCTAGTGCAG,8980 fluorescence intensity (a.u.)
16,ACCTCCACCCCGAGAAGGTGACATTTCTCCCTAATTATCCCGGAGTCACCTAGTGCAG,8770 fluorescence intensity (a.u.)
17,GACTTTACTCTATCTTCATTTCCGCACAACGTTGACTGGGCGGAGTCACCTAGTGCAG,10500 fluorescence intensity (a.u.)
18,ACCACCACGCGCGCACGAAACCCGCGCACTTTCCCCTCCTCGGAGTCACCTAGTGCAG,8630 fluorescence intensity (a.u.)
19,TTTATTTATCTTTTTCTCCATTTTTTCTGTTCTTCCTTTCCGGAGTCACCTAGTGCAG,9750 fluorescence intensity (a.u.)
20,TCAATGGTTGGTGGGGTTTTTTAGTGGGCTGTCGCCGAGCCGGAGTCACCTAGTGCAG,11700 fluorescence intensity (a.u.)
21,TATGTTCTTGATTTGTCCTGTTACATTGCTGACATATGTGCGGAGTCACCTAGTGCAG,10500 fluorescence intensity (a.u.)

# Another view of some results above:
row	Sequence	binding signal
1	ACATCGAGAGACCGAAATTTGGCCCACACCCAGGCTCAGCCGGAGTCACCTAGTGCAG	8710 fluorescence intensity (a.u.)
5	AATCCTGAAGATGCTACTGCTACACCTTTTCTTTTGGCCTCGGAGTCACCTAGTGCAG	10600 fluorescence intensity (a.u.)
6	TTAATCAACTCGATTTCTGTCCAAGTTCGTCTCTATTGACCGGAGTCACCTAGTGCAG	8520 fluorescence intensity (a.u.)
9	TCCCGCATGCGCCCGGTCCACCGCGCCTCGCCTCGCTGACCGGAGTCACCTAGTGCAG	8550 fluorescence intensity (a.u.)
10	GTTCTTTTTTAGTTTTGGAAGGGGACCTTTCTTGGGGTATCGGAGTCACCTAGTGCAG	13500 fluorescence intensity (a.u.)
14	AACTGCGGCATTGGCGATGTGGTTTCGCTGCTTGGTCATCCGGAGTCACCTAGTGCAG	8460 fluorescence intensity (a.u.)
15	TTTTTTTCCTTTTTTCCTGTTGGTGTTGCGCGGTGGGCGACGGAGTCACCTAGTGCAG	8980 fluorescence intensity (a.u.)
16	ACCTCCACCCCGAGAAGGTGACATTTCTCCCTAATTATCCCGGAGTCACCTAGTGCAG	8770 fluorescence intensity (a.u.)
17	GACTTTACTCTATCTTCATTTCCGCACAACGTTGACTGGGCGGAGTCACCTAGTGCAG	10500 fluorescence intensity (a.u.)
18	ACCACCACGCGCGCACGAAACCCGCGCACTTTCCCCTCCTCGGAGTCACCTAGTGCAG	8630 fluorescence intensity (a.u.)
21	TATGTTCTTGATTTGTCCTGTTACATTGCTGACATATGTGCGGAGTCACCTAGTGCAG	10500 fluorescence intensity (a.u.)

# Following part:

row,Sequence,binding signal
1,GACCGTAATTACCTTAGTGCAAATTCTACATATCTATATACGGAGTCACCTAGTGCAG,9350 fluorescence intensity (a.u.)
2,ATTACGGCAGTTTTCTTTATAGTCTCTACTCGTATATATACGGAGTCACCTAGTGCAG,8690 fluorescence intensity (a.u.)
3,AAAAACTGTCTCGTCGTCTCGAACCTTCTCGCCTCCCTCACGGAGTCACCTAGTGCAG,9610 fluorescence intensity (a.u.)
4,CTCAGTTTGATCATATGGTCATTAAAGTTTTCATTATCTTCGGAGTCACCTAGTGCAG,11400 fluorescence intensity (a.u.)
5,TTTCATCCCCACCATTTTTTTTTTGTTTGACCTCGAAAGGCGGAGTCACCTAGTGCAG,8870 fluorescence intensity (a.u.)
6,CATTTTATTTCTCACACTTGCTTTACTTATAAATTTATTTCGGAGTCACCTAGTGCAG,9110 fluorescence intensity (a.u.)
7,TAATATTTTCATTGCTTTATGTTGAAACTTTTTTATTTCCCGGAGTCACCTAGTGCAG,9010 fluorescence intensity (a.u.)
8,AGGGATATTCACTATTTTCATATAACGTTTGACCACTCGTCGGAGTCACCTAGTGCAG,8950 fluorescence intensity (a.u.)
9,ATCTCTTTCGATCGGTCGATCTGTAGCTGCTCCTGCTGTTCGGAGTCACCTAGTGCAG,9190 fluorescence intensity (a.u.)
10,TGATTGAGACGCTGACTTTTCCTAGTGTAAGTTTGACCACCGGAGTCACCTAGTGCAG,11800 fluorescence intensity (a.u.)
11,AAACTGCCATGCCGCATTCTTCTTGAACTCGGACTCTTCTCGGAGTCACCTAGTGCAG,8310 fluorescence intensity (a.u.)
12,CGGTGGGTGTGGGAGTTCAGCAAGTTTGACTCTGGGATTTCGGAGTCACCTAGTGCAG,12000 fluorescence intensity (a.u.)
13,TACACTCTCACCCGTAACATTACACGTAATAAATTTCACACGGAGTCACCTAGTGCAG,9000 fluorescence intensity (a.u.)
14,GTCCAGCGCGGCCGCCTCATCGTCGACGCCGTCGCCGCCCCGGAGTCACCTAGTGCAG,8030 fluorescence intensity (a.u.)
15,TTCTCCACGGCAAACCACCACCGGCGTCACCAGCCCACCACGGAGTCACCTAGTGCAG,8110 fluorescence intensity (a.u.)
16,AAACTACCGATTTTCTCCAAACTTATCACCAATTATATGACGGAGTCACCTAGTGCAG,8520 fluorescence intensity (a.u.)
17,TGCTCTATATACCTGTGAAATTTGCTATATTGTTTCTATTCGGAGTCACCTAGTGCAG,9100 fluorescence intensity (a.u.)
18,GCCAGTCAGTCTACATCCATGCAGCTTTGATCATTTCAATCGGAGTCACCTAGTGCAG,9580 fluorescence intensity (a.u.)
19,GATATGTACGGTTTTTCTTCTCTCAACTCGTACTAGATAGCGGAGTCACCTAGTGCAG,8090 fluorescence intensity (a.u.)
20,GCAGCATCACTCCATGTTCTCTCTTCCTACTCTCCATACTCGGAGTCACCTAGTGCAG,16800 fluorescence intensity (a.u.)
21,GACCGGTCCAACCGCTAACCTACAAATACCCGCCTCGCTTCGGAGTCACCTAGTGCAG,8490 fluorescence intensity (a.u.)
